Assay results reported in patent publication US10835548B2, “Metronomic oral gemcitabine for cancer therapy” (priority 2016, dated 2020).
Some entries share one result that the patent states for a list of compounds.

Test system: CFPAC-1 pancreatic cancer xenografts
Test: Xenografted mouse model of human pancreatic cancer cell line CFPAC-1
Format: in vivo, BALB/c nude mice
Conditions: Group 1: GEM 120 mg/kg i.p. Q3D×23

**Q.** For Nc1ccn([C@@H]2O[C@H](CO)[C@@H](O)C2(F)F)c(=O)n1 [GEM, gemcitabine], which MST is on record?
**A.** > 91 days
